Source: PMC4707031
Results are given in words; binding and its absence hold for the method and conditions named. In cells and extracts the contact can be indirect. Some results given as binding are weak or reduced against the parent protein; the word gives no strength. Where a sequence is shown, tags or fusion partners need not be part of it.

The chains behind the UniProt entries cited, without tags or fusion partners.
UniProt P49674: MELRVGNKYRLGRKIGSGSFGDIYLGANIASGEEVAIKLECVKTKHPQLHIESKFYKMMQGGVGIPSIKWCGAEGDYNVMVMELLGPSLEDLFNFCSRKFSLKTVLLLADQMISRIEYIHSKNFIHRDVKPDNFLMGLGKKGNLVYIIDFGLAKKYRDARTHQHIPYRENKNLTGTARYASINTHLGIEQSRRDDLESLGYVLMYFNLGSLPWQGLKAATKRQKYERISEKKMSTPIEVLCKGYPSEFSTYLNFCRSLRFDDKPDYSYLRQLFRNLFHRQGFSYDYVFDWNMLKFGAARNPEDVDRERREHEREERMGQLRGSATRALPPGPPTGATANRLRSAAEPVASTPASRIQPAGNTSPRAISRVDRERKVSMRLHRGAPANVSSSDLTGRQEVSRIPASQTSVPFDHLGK

What was measured:
Test in all cases: co-IP; FLAG-tagged FAM83H construct and Myc-tagged partner co-expressed in HEK293 cells; NP40 lysate; anti-FLAG antibody on protein A Dynabeads, 30 min at room temperature, washed twice; immunoblot with anti-Myc (or anti-CK1ε)
[1] = molecular target: T1, N-terminal FLAG-tagged full-length mouse FAM83H (pCMV-Tag2B-Fam83h) (mouse) (UniProt Q148V8)
T1 sequence: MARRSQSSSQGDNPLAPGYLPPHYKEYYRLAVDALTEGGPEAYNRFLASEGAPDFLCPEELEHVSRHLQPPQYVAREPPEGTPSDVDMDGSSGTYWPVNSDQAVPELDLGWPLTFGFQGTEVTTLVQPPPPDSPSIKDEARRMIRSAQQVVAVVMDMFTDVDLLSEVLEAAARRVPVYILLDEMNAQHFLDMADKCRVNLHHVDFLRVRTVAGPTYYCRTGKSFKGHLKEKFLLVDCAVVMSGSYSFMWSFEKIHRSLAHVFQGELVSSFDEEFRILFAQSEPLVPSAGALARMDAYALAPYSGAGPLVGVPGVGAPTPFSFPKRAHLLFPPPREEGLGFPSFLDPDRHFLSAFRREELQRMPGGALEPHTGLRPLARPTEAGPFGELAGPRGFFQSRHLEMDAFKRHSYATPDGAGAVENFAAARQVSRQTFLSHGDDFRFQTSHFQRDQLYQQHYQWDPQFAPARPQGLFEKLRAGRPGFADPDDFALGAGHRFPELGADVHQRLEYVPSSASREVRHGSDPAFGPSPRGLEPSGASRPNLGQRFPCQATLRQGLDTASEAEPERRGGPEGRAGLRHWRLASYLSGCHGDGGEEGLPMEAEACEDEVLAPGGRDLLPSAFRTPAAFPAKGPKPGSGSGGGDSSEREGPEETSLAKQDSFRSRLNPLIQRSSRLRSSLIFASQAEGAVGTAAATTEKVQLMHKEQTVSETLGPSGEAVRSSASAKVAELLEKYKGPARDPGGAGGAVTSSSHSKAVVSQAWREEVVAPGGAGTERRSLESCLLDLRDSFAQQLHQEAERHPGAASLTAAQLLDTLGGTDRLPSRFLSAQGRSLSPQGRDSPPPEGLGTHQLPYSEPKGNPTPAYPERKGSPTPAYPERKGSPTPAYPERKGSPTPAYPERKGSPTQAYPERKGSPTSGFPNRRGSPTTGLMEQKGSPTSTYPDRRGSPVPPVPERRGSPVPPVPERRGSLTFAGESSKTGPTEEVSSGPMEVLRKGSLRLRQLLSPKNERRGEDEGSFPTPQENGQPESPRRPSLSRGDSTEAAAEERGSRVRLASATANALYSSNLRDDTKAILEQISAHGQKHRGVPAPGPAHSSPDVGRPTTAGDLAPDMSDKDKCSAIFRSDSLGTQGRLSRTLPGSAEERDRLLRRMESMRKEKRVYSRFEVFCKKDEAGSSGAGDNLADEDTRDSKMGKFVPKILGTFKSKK

[2] = molecular target: T2, N-terminal FLAG-tagged mouse FAM83H^1-697 (pCMV-Tag2B-Fam83h^1-697) (mouse) (UniProt Q148V8)
T2 sequence: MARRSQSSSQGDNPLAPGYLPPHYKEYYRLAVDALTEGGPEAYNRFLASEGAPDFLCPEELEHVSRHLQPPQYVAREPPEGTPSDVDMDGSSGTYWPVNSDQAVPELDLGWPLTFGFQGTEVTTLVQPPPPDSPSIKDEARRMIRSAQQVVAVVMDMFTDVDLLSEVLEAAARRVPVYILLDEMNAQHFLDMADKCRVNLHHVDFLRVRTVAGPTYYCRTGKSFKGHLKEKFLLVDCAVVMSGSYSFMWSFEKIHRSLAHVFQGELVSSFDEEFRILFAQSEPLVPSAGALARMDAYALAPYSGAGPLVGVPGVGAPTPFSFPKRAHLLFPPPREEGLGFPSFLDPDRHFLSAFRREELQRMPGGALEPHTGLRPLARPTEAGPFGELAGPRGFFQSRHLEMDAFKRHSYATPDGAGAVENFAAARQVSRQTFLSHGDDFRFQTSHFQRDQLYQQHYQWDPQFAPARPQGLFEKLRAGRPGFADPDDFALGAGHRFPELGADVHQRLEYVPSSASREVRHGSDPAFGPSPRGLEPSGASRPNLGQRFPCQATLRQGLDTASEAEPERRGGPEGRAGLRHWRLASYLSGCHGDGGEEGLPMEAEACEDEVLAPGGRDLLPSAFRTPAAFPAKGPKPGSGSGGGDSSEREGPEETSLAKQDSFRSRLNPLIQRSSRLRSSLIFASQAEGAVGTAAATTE

[3] = molecular target: T3, N-terminal FLAG-tagged mouse FAM83H^288-1209 (pCMV-Tag2B-Fam83h^288-1209) (mouse) (UniProt Q148V8)
T3 sequence: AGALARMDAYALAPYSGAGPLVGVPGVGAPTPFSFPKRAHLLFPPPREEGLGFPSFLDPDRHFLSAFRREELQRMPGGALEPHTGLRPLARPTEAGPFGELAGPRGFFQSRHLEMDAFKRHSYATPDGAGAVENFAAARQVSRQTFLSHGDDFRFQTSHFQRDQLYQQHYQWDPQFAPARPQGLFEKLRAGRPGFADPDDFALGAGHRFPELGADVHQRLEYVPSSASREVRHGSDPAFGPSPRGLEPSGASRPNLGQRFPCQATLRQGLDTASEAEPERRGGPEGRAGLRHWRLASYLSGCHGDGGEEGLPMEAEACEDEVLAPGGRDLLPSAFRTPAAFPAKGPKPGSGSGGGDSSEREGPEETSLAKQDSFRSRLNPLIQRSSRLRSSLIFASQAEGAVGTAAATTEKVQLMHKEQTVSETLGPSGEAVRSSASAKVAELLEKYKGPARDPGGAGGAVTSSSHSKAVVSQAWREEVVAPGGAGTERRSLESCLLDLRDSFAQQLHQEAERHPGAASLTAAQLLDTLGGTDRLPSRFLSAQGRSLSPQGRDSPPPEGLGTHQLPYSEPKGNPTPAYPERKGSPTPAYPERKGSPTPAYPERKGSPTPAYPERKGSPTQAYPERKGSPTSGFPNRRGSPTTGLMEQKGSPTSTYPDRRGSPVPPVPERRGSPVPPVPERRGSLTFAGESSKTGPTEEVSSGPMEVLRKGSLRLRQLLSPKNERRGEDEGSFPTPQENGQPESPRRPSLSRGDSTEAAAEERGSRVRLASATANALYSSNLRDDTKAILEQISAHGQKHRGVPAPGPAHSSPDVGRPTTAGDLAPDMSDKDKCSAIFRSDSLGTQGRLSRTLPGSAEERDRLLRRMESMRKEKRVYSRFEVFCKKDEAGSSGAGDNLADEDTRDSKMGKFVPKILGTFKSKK

[4] = molecular target: T4, N-terminal FLAG-tagged mouse FAM83H^698-1209 (pCMV-Tag2B-Fam83h^698-1209) (mouse) (UniProt Q148V8)
T4 sequence: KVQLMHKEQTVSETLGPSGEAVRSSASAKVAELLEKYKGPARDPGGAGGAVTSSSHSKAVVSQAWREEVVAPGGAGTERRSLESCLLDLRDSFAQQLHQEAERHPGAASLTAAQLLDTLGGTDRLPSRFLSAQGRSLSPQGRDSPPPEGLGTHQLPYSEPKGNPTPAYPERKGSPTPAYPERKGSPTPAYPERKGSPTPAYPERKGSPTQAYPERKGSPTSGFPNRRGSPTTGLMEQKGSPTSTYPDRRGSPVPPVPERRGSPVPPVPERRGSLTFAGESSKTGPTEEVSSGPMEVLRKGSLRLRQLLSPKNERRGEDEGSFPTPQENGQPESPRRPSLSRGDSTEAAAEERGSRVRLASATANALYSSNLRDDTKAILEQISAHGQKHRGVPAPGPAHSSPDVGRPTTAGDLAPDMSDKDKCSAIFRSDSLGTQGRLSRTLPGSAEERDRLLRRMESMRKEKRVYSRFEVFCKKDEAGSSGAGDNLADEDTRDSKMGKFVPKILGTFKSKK

## 6xMyc-tagged CK1ε (pcDNA3-CK1ε-6xMyc) (from UniProt P49674 1-416) (enzyme)
[1]
  binding: binds
[2]
  binding: binds
[3]
  binding: no binding
[4]
  binding: no binding
